The values below come from PubChem BioAssay AID1918941 (Molecular Pharmacology Branch, DTP, NCI, 2023).

The subject of this test is SW 1271 complex spheroids, viability. The experiment in a line: Anticancer human tumor SW 1271 cell line growth inhibition [LSD1].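 Further: spheroids exposed to agents for 7 days before luminescence read; 100% = DMSO vehicle control viability.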 Conditions: compound 10 µM; stronger effect = lower value. The source says:
Multicellular complex tumor spheroid response to LSD1 Inhibitor Iadademstat in combination with a variety of drugs and investigational agents in selected tumor cell lines
The current study was undertaken to assess response to LSD1 inhibitors in combination with standard-of-care drugs and investigational agents in solid tumor complex spheroid models as well as in the K-562 leukemia. Complex spheroids include a stromal component modeled by human endothelial cells (HUVEC) and fibroblasts modeled by human mesenchymal stem cells (MSCs). The concentration ranges selected for each drug and investigational agent were based upon clinically achievable concentrations if the clinical Cmax of the agent was known.
Compounds. The drugs and investigational agents used in this study are listed on Table 1. All of the agents used, including staurosporine (NSC755774) and gemcitabine (NSC613327), were obtained from the Developmental Therapeutics Program, NCI. FDA-approved anticancer drugs are available from the NCI at http://dtp.nci.nih.gov/branches/dscb/oncology_drugset_explanation.html. Drugs and investigational agents were >95% pure by proton nuclear magnetic resonance (NMR) and liquid chromatography/mass spectrometry (LC/MS). […] If the clinical Cmax for an agent had not been determined, the highest concentration tested was 10 microM. […]

SMILES strings stand for the structures. Several values for one entry are separate records, joined by “and”; a condition that tells them apart may be missing. Equal values may be shown once. This continues a long series; more values of the same kind are listed elsewhere.

Regarding `NC1CCC(NC2CC2c2ccccc2)CC1` (stereo unspecified), the viability, T/C is 87% and 83.4%.
